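A cell-based FRET test of anthrax lethal toxin entry, tracked through the 460 nm emission signal; the cell line is not named here. Each compound was tested as a concentration series from about 0.0005 to 40 µM. The number is the fitted AC50 of the 460 nm signal alone; lower values mean a more potent effect. A falling signal goes with compounds filed as inhibitors or cytotoxic, a rising one with activators or fluorescent compounds (inferred from the filed classes).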

Values are in µM. Common to all entries: measured here: 460 nm channel. This is a side read-out of the assay, for part of the compounds, not drawn at random. A potency from a partial, single-point or poor curve is only a rough figure. The first word of each remark tells which way the curve ran; it can be opposite to the aim of the assay.

Result for CCN(CC)S(=O)(=O)c1cccc(C(=O)Nc2nc3cc4c(cc3s2)OCCO4)c1 was AC50 10 µM (falling, partial curve). With CCn1cc(C(=O)NCc2ccc3c(c2)OCO3)c(=O)c2cc(S(=O)(=O)N3CCOCC3)ccc21 the assay gave AC50 19.95 µM (rising, single point). With COc1cccc(-c2ccc(=O)n(CC(=O)NCCN3CCOCC3)n2)c1 the assay gave AC50 5.012 µM (falling, single point). With COc1ccc(OCc2nnc(SC(C)C(=O)Nc3nccs3)n2-c2ccccc2)cc1 (centres undefined) the assay gave AC50 1.259 µM (rising, full curve). Clc1ccc(C(c2ccc(Cl)cc2)C(Cl)Cl)cc1 gave AC50 15.85 µM (falling, partial curve).

With C[C@H](NC(=O)c1ccc(Cl)c(Cl)c1)c1ccc(-c2ccccc2)cc1 the assay gave AC50 0.7943 µM (falling, single point). CCN1C(=O)[C@H]2[C@@H]3[C@H](O)[C@H](O)CC(=O)[C@H]3CC[C@H]2C1=O read AC50 3.981 µM (rising, single point). Result for Cc1nc(NCc2ccccc2)c2nc(-c3ccccc3)n(CCCN(C)C)c2n1 was AC50 0.02512 µM (falling, full curve, poor fit). CN1/C(=C\C(=O)COc2ccc3c(c2)OCO3)C(C)(C)c2ccccc21 read AC50 25.12 µM (falling, single point). COc1ccc(Oc2ncc3nc(-c4cccs4)c(=O)n(Cc4cccc(OC)c4)c3n2)cc1 gave AC50 2.512 µM (rising, full curve).

Result for C=CCNC(=O)c1ccccc1NS(=O)(=O)c1ccccc1 was AC50 0.003981 µM (falling, full curve, poor fit). For c1ccc(Oc2nc(Oc3ccccc3)nc(N3CCOCC3)n2)cc1 the result was AC50 31.62 µM (falling, single point). N#C/C(=C(\O)C(=O)O)c1ccc(-c2cccc3ccccc23)cc1 gave AC50 0.1 µM (falling, single point). CCC1(C(=O)OC)NC(c2ccccc2OC)C2C(=O)N(C)C(=O)C21 (centres undefined) gave AC50 10 µM (rising, single point). N=c1n(CCO)c2ccccc2n1CCOc1ccc(Cl)cc1Cl read AC50 12.59 µM (falling, partial curve).

COc1ccc(S(=O)(=O)N2CCN(C(=O)c3cccc(Cl)c3)CC2)cc1 read AC50 3.981 µM (rising, full curve, poor fit). O=c1c(-c2cccs2)nc2cnc(Oc3cccc(Cl)c3)nc2n1C1CC1 gave AC50 5.012 µM (rising, full curve). COc1ccc([C@@H]2OC[C@]3(COC(C)=O)[C@H](C)C=C(C)[C@@H]2[C@H]3C)cc1 gave AC50 0.3162 µM (falling, full curve). With COc1ccc(S(=O)(=O)N2CCN(c3cccc(C)c3C)CC2)cc1 the assay gave AC50 15.85 µM (falling, partial curve). With CC1(C)CC[C@]2(C(=O)O)CC[C@]3(C)C(=CC[C@@H]4[C@@]5(C)CC[C@H](O)C(C)(C)[C@@H]5CC[C@@]43C)[C@@H]2C1 the assay gave AC50 0.1585 µM (falling, full curve, poor fit).

With Cc1noc(NS(=O)(=O)c2ccc(NC(=O)Nc3ccc(Cl)c(Cl)c3)cc2)c1C the assay gave AC50 31.62 µM (falling, single point). CN1Cc2c(ccc3c2OCO3)[C@@H]2[C@@H](O)Cc3cc4c(cc3[C@@H]21)OCO4 gave AC50 1.995 µM (falling, full curve, poor fit). With CCCCN1CCC[C@@H]1CNC(=O)c1cc(C#N)c2ccccc2c1OC the assay gave AC50 12.59 µM (falling, single point). With CCn1c2c(c3cc(Br)ccc31)CCC/C2=N\O the assay gave AC50 12.59 µM (falling, partial curve). Result for COC(=O)c1c(NC(=O)CN2CCCC(C)C2)c2c(C)cccc2n1C (centres undefined) was AC50 0.631 µM (rising, full curve, poor fit).

For O=C(CSc1nnc(Cc2cccs2)n1-c1ccccc1)Nc1ccc2c(c1)OCCO2 the result was AC50 0.01585 µM (falling, full curve, poor fit). Cn1c(=O)[nH]c(=O)c2c1nc(Br)n2CCCO read AC50 0.2512 µM (rising, full curve, poor fit). Result for COc1cc([C@H]2c3cc4c(cc3[C@@H](O)[C@@H]3COC(=O)[C@H]23)OCO4)cc(OC)c1OC was AC50 0.003162 µM (falling, full curve). CCCOc1ccc(C(=O)Nc2cc(-c3nn4c(C)nnc4s3)ccc2C)cc1 read AC50 31.62 µM (falling, single point). Cc1nc(SCc2ccccc2)c(C(F)(F)F)c(=O)[nH]1 gave AC50 0.1 µM (rising, full curve).

With CCCN(CCC)[C@@H]1CCc2ccc(O)cc2C1 the assay gave AC50 12.59 µM (falling, partial curve). COc1ccc(-c2nc3cnc(OC)nc3n(Cc3cccs3)c2=O)cc1 gave AC50 10 µM (rising, partial curve). For Clc1ccc(COC(Cn2ccnc2)c2ccc(Cl)cc2Cl)c(Cl)c1 (centres undefined) the result was AC50 10 µM (falling, partial curve). With COC(=O)c1ccccc1NS(=O)(=O)c1cn(C)c(=O)n(C)c1=O the assay gave AC50 19.95 µM (falling, partial curve, poor fit). Cn1c(=O)c2c(nc(NCCCN3CCOCC3)n2Cc2ccc(Cl)c(Cl)c2)n(C)c1=O gave AC50 10 µM (rising, single point).

With O=C1CN(C(=O)CCCc2c[nH]c3ccccc23)c2ccccc2N1 the assay gave AC50 10 µM (rising, partial curve).

Once more, the final 3:

SMILES,AC50 (µM),curve
COC(=O)c1ccccc1NS(=O)(=O)c1cn(C)c(=O)n(C)c1=O,19.95,"falling, partial curve, poor fit"
Cn1c(=O)c2c(nc(NCCCN3CCOCC3)n2Cc2ccc(Cl)c(Cl)c2)n(C)c1=O,10,"rising, single point"
O=C1CN(C(=O)CCCc2c[nH]c3ccccc23)c2ccccc2N1,10,"rising, partial curve"

Data taken from PubChem BioAssay AID912, deposited by NCATS (2007).